# About 13,000 (3.2%) of roughly 400,000 compounds were called active. This list was built around the results that the source calls inconclusive (neither active nor inactive); the mix of calls is not that of the screen. The call rests on the fitted dose curve; in most records, active means well fitted cell-killing curve with a large enough effect; inconclusive means small, poorly fitted or top-dose-only effect, or effect the other way; inactive means flat fitted curve, though single readings scatter. A potency beside an inconclusive call is a rough fit, not a confirmed value.
# Test: qHTS assay for MDR1-selective chemotherapeutics: Primary screen using the drug-selected MDR subline cells KB-V1; further: nearly all actives have a fitted effect of over 60% in size
# Conditions: KB-V1 MDR cells viability, CellTiter-Glo, 72 h; activity change, negative = cytotoxicity: at 46.1 µM (top of the series)
# Method in brief: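 KB-V1 cells (P-gp-expressing MDR subline of KB-3-1) in phenol-red-free DMEM with 10% FBS were exposed to library compounds over a concentration series for 72 h at 37 degrees C. Viability read by CellTiter-Glo luminescence; concentration-effect curves fitted after normalization.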
# On the % scale 0 is the no-effect control and ±100 the full control effect; potency means the concentration at half of the fitted maximal effect.
SMILES,Potency,"activity change, negative = cytotoxicity"
CC(C)N(Cc1ccccc1)C(=S)NC(=O)C1(C)CC1(Cl)Cl (stereo unspecified),"inconclusive: 18.4 µM [cytotoxic, single point]",
COc1ccc(CCC(=O)Nc2cccc(S(=O)(=O)N3CCCCCC3)c2)cc1OC,,inactive: -25.1%
Cc1nc(N2CCN(c3ccccc3)CC2)[nH]c(=O)c1C,,inactive: -17%
CCOC(=O)N(C)c1c(CC)nc2c(OCc3ccc(F)cc3)cccn12,"inconclusive: 4.61 µM [cytotoxic, partial curve]",
Cc1cccc(NC(=O)CSc2nsc(SCC(=O)Nc3cccc(C)c3)c2C#N)c1,,inactive: 0.533%
O=C(O)CSc1nc2ccccc2o1,"inconclusive: 2.59 µM [rising, partial curve]",
CNC(=S)N(Cc1cccs1)Cc1cc2cc(OC)ccc2[nH]c1=O,"inconclusive: 8.2 µM [cytotoxic, partial curve]",
OC(CBr)CN1CCCCC1 (stereo unspecified),,inactive: 6.25%
Cc1ccccc1Cn1cc(NC(=O)c2noc3c2CC(C(C)(C)C)CC3)cn1 (stereo unspecified),active: 18.4 µM,
COC(=O)c1cccc(NC(=O)c2cccc([N+](=O)[O-])c2)c1,"inconclusive: 25.9 µM [cytotoxic, single point]",
COc1ccc(NC(=O)C2CCN(S(=O)(=O)c3ccc(N4CCCC4=O)cc3)CC2)cc1OC,,inactive: 3.84%
Cc1noc(C)c1CSCC(=O)Nc1ccc(S(C)(=O)=O)cc1,,inconclusive: -23.1%
CCOc1ccc(-c2c(C)nn3c(C)c(C(=O)NCCc4ccc(Cl)cc4)cnc23)cc1OCC,"inconclusive: 29.1 µM [cytotoxic, single point]",
CC(C)Oc1ccc(CNC(=O)C2CCN(C(=O)N3CCOc4ccccc43)CC2)cc1,,inactive: -12.4%
Cc1ccc(S(=O)(=O)Cc2ccc(C(=O)N3CCN(c4cccc(Cl)c4)CC3)o2)cc1,active: 5.8 µM,
CC(C)C(=O)Nc1cccc(COc2ccc(CN(CCc3ccccc3)C(=O)OC(C)(C)C)cc2)c1,,inconclusive: -30.8% [cytotoxic]
COc1cccc(-c2csc(N3CCN(C(=S)Nc4ccccc4OC)CC3)n2)c1,"inconclusive: 16.4 µM [cytotoxic, single point]",
COCCNC(=O)c1cc2oc3ccccc3c2n1C,active: 23.1 µM,
O=C(CN1CCC(Cc2ccccc2)CC1)NCCc1ccc(F)cc1,"inconclusive: 20.6 µM [cytotoxic, single point]",
COc1ccc(-c2ccc3[nH]c4c(c3c2)CCN2C[C@H]3[C@H](C)ON(C)[C@H]3C[C@@H]42)cc1,"inconclusive: 29.1 µM [rising, single point]",
CNC(=S)N(Cc1ccc(Cl)cc1)Cc1cccs1,"inconclusive: 29.1 µM [cytotoxic, single point]",

# Pulled one by one from the entries so far:
SMILES,Potency,"activity change, negative = cytotoxicity"
CCOc1ccc(-c2c(C)nn3c(C)c(C(=O)NCCc4ccc(Cl)cc4)cnc23)cc1OCC,"inconclusive: 29.1 µM [cytotoxic, single point]",
CC(C)Oc1ccc(CNC(=O)C2CCN(C(=O)N3CCOc4ccccc43)CC2)cc1,,inactive: -12.4%
